Experiment [1] deals with T1, CCCTC-binding factor (CTCF) (mouse (endogenous in iHepSCs)) (UniProt Q61164).
T1 sequence: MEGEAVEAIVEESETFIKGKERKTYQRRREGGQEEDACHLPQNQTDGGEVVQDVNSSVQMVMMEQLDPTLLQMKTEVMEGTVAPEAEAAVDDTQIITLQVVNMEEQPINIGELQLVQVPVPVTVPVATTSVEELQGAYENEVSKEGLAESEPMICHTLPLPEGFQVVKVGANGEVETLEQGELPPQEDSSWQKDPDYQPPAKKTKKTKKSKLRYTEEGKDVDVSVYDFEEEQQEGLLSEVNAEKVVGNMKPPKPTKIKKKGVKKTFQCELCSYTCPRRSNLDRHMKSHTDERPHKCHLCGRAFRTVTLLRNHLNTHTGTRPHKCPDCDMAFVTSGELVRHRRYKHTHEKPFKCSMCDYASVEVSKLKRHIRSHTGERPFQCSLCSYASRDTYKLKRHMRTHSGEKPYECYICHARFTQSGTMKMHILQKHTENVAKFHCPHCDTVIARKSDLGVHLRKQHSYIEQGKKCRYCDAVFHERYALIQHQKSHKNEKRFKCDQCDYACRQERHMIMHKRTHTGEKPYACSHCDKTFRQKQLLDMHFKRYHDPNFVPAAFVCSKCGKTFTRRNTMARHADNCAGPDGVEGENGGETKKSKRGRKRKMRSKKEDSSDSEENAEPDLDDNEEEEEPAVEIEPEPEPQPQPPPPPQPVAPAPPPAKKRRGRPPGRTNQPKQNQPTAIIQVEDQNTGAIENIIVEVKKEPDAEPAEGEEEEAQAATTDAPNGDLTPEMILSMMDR
The experiment in a line: co-IP; nuclear extract of iHepSCs; immunoprecipitation with anti-TET1 antibody or anti-CTCF antibody, endogenous proteins.

Chains of the proteins cited; added tags and fusions are not shown.
UniProt Q3URK3: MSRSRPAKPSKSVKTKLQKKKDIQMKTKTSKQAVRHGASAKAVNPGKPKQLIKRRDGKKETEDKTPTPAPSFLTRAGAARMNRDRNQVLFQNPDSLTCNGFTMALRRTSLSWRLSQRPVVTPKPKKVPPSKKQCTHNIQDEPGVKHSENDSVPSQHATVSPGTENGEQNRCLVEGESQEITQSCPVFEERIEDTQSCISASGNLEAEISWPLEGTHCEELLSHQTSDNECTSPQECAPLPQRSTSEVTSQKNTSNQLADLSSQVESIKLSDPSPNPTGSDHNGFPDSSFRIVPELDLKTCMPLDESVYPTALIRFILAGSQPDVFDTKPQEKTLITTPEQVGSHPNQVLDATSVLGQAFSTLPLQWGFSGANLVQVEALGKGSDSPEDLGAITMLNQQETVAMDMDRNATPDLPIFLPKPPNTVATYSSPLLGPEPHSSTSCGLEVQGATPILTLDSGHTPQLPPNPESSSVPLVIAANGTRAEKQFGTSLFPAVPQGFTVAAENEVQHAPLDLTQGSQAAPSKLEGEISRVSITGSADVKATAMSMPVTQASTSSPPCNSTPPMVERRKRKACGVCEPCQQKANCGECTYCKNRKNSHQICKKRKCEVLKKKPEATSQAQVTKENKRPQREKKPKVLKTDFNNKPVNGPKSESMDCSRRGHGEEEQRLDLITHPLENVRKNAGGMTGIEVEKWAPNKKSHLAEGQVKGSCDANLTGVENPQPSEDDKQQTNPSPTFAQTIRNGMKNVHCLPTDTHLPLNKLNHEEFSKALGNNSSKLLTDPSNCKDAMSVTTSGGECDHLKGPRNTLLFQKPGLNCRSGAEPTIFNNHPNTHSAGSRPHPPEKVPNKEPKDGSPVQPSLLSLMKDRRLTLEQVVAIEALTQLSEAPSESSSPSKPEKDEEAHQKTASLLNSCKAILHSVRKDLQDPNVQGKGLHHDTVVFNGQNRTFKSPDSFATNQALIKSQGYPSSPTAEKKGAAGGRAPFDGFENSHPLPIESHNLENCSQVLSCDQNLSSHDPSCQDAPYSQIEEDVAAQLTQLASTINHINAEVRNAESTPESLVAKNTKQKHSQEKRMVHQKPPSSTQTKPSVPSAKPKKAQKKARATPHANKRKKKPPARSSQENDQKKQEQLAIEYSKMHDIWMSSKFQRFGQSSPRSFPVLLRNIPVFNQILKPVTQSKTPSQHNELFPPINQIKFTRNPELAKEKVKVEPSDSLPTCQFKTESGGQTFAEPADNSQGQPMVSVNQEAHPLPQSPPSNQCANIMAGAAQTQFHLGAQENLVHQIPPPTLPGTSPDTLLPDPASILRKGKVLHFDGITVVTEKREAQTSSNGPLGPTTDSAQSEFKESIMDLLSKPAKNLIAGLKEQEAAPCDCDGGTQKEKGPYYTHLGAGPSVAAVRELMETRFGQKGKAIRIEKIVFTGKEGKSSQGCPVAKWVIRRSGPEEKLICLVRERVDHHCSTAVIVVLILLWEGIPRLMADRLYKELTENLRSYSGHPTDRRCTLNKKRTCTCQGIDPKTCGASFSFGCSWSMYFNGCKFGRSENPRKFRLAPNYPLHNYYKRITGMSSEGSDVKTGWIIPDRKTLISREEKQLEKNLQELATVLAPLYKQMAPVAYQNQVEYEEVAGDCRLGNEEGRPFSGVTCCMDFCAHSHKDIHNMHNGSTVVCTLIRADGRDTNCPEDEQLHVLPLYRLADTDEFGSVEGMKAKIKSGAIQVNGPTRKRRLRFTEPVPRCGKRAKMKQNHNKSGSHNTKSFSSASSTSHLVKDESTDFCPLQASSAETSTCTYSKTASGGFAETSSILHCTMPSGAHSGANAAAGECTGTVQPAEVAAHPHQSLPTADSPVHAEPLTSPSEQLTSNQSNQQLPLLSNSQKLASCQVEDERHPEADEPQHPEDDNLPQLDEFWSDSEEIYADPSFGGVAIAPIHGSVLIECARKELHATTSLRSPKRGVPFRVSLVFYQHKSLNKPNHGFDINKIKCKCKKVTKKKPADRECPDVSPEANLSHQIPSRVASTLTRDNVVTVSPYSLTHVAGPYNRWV

The target in experiment [2] is Tet methylcytosine dioxygenase 1 (TET1) (mouse (endogenous in iHepSCs)) (UniProt Q3URK3). Described as above.

No constants are given. Whether binding was seen depends on the method and setting. In cells and extracts the contact can be indirect. Some binding calls cover weakened binding; strength is not graded here.

In the case of “Tet methylcytosine dioxygenase 1 (TET1) (from UniProt Q3URK3 1-2039)”, the binding result in experiment [1] is “binds”.

B1: CCCTC-binding factor (CTCF) (protein, UniProt Q61164 1-736)
chain: T1 sequence
In the case of B1, in experiment [2], the binding entry is recorded as “binds”.

The record behind these values is paper PMC9440563.
